According to PubChem BioAssay AID2685 (National Center for Advancing Translational Sciences (NCATS), 2010):
This is one part of the list. Further columns of the screen follow, without active or inactive calls. Most of these compounds were active or inconclusive in the main read-out, so they are no random draw. The note in brackets gives the kind of curve behind each potency; many fits are weak.

Experiment: qHTS Assay for Lipid Storage Modulators in Drosophila S3 Cells;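 for cell number change: cells counted by Cell Tracker Red CMTPX staining in the red channel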
Conditions: BODIPY lipid droplet fluorescence, 18-24 h; for cell number change: measured here: cell count max response, cells fed with added oleic acid
Method in brief: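 Laser-scanning cytometry quantifies lipid droplet accumulation (500–530 nm total intensity; droplet/cell object ratio) in oleic acid-fed (400 uM added) Drosophila S3 cells treated with a concentration series. 20 uM Triacsin C defined 100% inhibition.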

[1] = measured here: cell number channel AC50, cells fed with added oleic acid
[2] = measured here: lipid fluorescence (Fed channel) AC50, cells fed with added oleic acid

SMILES | cell number change [%] | AC50 [1] | AC50 [2]
O=C(COC(=O)c1ccccc1Br)NC1CCCC1 | -5.13 |  | 
Cc1ccsc1CNCc1cc(Cl)ccc1O | -34.2 | 16.4 µM [falling, partial curve, poor fit] | 
CC(=O)Nc1ccc(NC(=O)COc2ccccc2C(=O)Nc2cccc(Cl)c2Cl)cc1 | 7.8 |  | 14.6 µM [rising, partial curve]
Cc1ccc(C(=O)Nc2cccc(NC(=O)c3cccs3)c2)c(C)c1 | -19.6 |  | 
S=C(NCCc1ccccc1)N1CCOCC1 | 15.3 |  | 0.58 µM [falling, single point]
COc1cc(NS(=O)(=O)c2ccc(C)cc2)c2ncccc2c1 | -14.6 |  | 13 µM [falling, single point]
Cc1ccc(/C=N/NC(=O)c2ccc(OC3CCCC3)cc2)o1 | -21.5 |  | 29.1 µM [falling, single point]
N#C/C=C(/N)c1ccc(Br)cc1 | 71.8 | 25.9 µM [rising, single point] | 25.9 µM [rising, single point]
O=C(Nc1ccc(Oc2cccnc2)cc1)C1CCN(Cc2cc(Cl)ccc2O)CC1 | -54.1 | 29.1 µM [falling, single point] | 29.1 µM [falling, single point]
Nc1nc(Nc2ccccc2Cl)cc(=O)[nH]1 | 11.4 |  | 6.51 µM [rising, single point]
Cc1ccc2cc(CN(CC(C)C)C(=O)C3CCCO3)c(=O)[nH]c2c1 (stereo not given) |  | 3.26 µM [rising, single point] | 2.91 µM [rising, partial curve]
CCc1ccccc1NC(=O)N1CCCC(CCC(=O)N(C)CCc2ccccn2)C1 (stereo not given) | 23.2 |  | 9.2 µM [rising, partial curve]
COc1cc(Cl)c(S(=O)(=O)NCCCN2CCOCC2)cc1Cl | 14.5 |  | 4.11 µM [falling, single point]
COc1ccccc1N1CCN(C2CCN(C(=O)c3cccc(F)c3)CC2)CC1 | 53.5 | 14.6 µM [rising, single point] | 16.4 µM [rising, partial curve, poor fit]
COc1ccc(-c2nn(-c3ccccc3)cc2/C=N/NC(=O)c2ccc(Br)o2)cc1 | -56.9 | 9.2 µM [falling, partial curve] | 4.11 µM [falling, partial curve]
COc1cc(C(=O)N/N=c2/sc3ccccc3n2C)cc(OC)c1OC | 12 |  | 29.1 µM [rising, single point]
CN1CCN(c2nc(-c3ccc(C(C)(C)C)cc3)nc3ccccc23)CC1 | -62.3 | 18.4 µM [falling, partial curve] | 18.4 µM [falling, single point]
Cc1cccc(NC(=O)c2cccc(Cn3cc(Br)c([N+](=O)[O-])n3)c2)c1C | 56.5 | 7.31 µM [rising, partial curve, poor fit] | 23.1 µM [rising, partial curve]
O=c1cc(-c2ccccc2Cl)oc2c(Br)ccc(O)c12 | 8.5 |  | 9.2 µM [rising, partial curve]

Single records, from the list above. Values in the order: cell number change [%]	AC50 [1]	AC50 [2]
`COc1ccccc1N1CCN(C2CCN(C(=O)c3cccc(F)c3)CC2)CC1` is listed with 53.5	14.6 µM [rising, single point]	16.4 µM [rising, partial curve, poor fit]
`N#C/C=C(/N)c1ccc(Br)cc1` is listed with 71.8	25.9 µM [rising, single point]	25.9 µM [rising, single point]

More entries:

SMILES | cell number change [%] | AC50 [1] | AC50 [2]
CCOC(=O)c1nc(Nc2ccc(C(=O)OC)cc2)c2ccccc2n1 | -35.1 |  | 23.1 µM [falling, partial curve]
Cn1c(N)c(C(=O)COC(=O)CC2CC3CCC2C3)c(=O)n(C)c1=O (stereo not given) |  | 0.731 µM [falling, single point] | 0.731 µM [falling, single point]
Cc1c(O)ccc2c(=O)c(-c3nncn3-c3ccccc3)coc12 | 12.4 |  | 
O=c1[nH]c(CSc2ccccn2)nc2c1cnn2-c1ccccc1 | 11.8 |  | 6.51 µM [rising, single point]
O=c1[nH]c(CN2CCc3ccccc32)nc2scc(-c3cccs3)c12 | -10.5 |  | 4.11 µM [rising, full curve, poor fit]
C=C(C)CSc1nnc(CCNC(=O)OC(C)(C)C)o1 | 5.97 |  | 6.51 µM [rising, partial curve]
CCOc1cc(-c2c(C#N)c(N)nc3c2CCc2ccccc2-3)ccc1O | -34.7 | 29.1 µM [falling, single point] | 23.1 µM [falling, single point]
Nc1nc(Oc2ccc(F)cc2)c(Br)c(=O)[nH]1 | 13.2 |  | 3.66 µM [rising, single point]
COC(=O)c1ccc(CC(=O)c2ccc(O)cc2O)o1 | 21 |  | 29.1 µM [rising, single point]
CC(C)CC(=O)NCCc1ccncc1 | -79.5 | 18.4 µM [falling, partial curve, poor fit] | 
C=CCn1c(SCCN2C(=O)c3ccccc3C2=O)nc2scc(-c3ccccc3)c2c1=O | 15.4 |  | 6.51 µM [falling, single point]
Cc1ccc(NC(=S)NCc2cccs2)c(C)c1 |  | 0.731 µM [rising, single point] | 6.51 µM [rising, single point]
Cc1cc(-c2n[nH]c(=S)n2-c2ccc(F)cc2)nn1C | -22.1 |  | 0.00461 µM [falling, full curve, poor fit]
O=C(COC(=O)c1ccc(F)cc1)NC1CC1 | -0.0705 |  | 1.64 µM [rising, single point]
COc1ccc2c(c1)nc1n2CN(CC2CCCO2)CN1Cc1ccccc1 (stereo not given) | 22.5 |  | 16.4 µM [rising, single point]
CCOC(=O)c1nnc(-c2ccccc2)nc1Oc1ccccc1Cl | 19.2 |  | 29.1 µM [falling, single point]
CC(=O)N1CCOc2ccc(S(=O)(=O)NCC3CCC(C(=O)Nc4ncccc4C)CC3)cc21 (stereo not given) | -24.5 |  | 29.1 µM [rising, single point]
CC(=O)N1c2ccc(S(=O)(=O)N3CCC(C(=O)Nc4ccccn4)CC3)cc2CC1C (stereo not given) | 27.8 |  | 
Cc1ccc2nc(C)cc(N/N=C/c3ccccc3O)c2c1 | -30.3 | 29.1 µM [falling, single point] | 29.1 µM [falling, single point]
